Test results from the supplement of paper PMC7661543.
Differences between knockout arms are mostly noise.

System: MDA-MB-231
Experiment: relative cell number vs DMSO control (72 h) (% of DMSO); higher = less growth inhibition (more cells)
Description: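 QMAP-Seq: a pool of 5 breast cancer cell lines (ZR-75-1, SKBR3, HCC-38, MDA-MB-231, BT-20), each carrying 12 doxycycline-inducible Cas9 sgRNA perturbations (11 knockouts plus non-targeting sgNT), was treated with compounds for 72 h at four 10-fold doses (10 nM-10 uM or 1 nM-1 uM range). Barcodes were amplified and sequenced, and cell number was interpolated from 293T spike-in standard curves. The result is expressed as % of the median of DMSO wells. Two biological replicates.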

COc1ccc(-c2ccc3c(N4CCOCC4)nc(N4C[C@@H](C)O[C@@H](C)C4)nc3n2)cc1CO
Conditions | relative cell number
sgRNA knockout: sgATF3, 10 nM | 113
sgRNA knockout: sgATF3, 100 nM | 112
sgRNA knockout: sgATF3, 1000 nM | 107
sgRNA knockout: sgATF3, 10000 nM | 51.1
sgRNA knockout: sgATF4, 10 nM | 93.3
sgRNA knockout: sgATF4, 100 nM | 166
sgRNA knockout: sgATF4, 1000 nM | 124
sgRNA knockout: sgATF4, 10000 nM | 52.4
sgRNA knockout: sgATF6, 10 nM | 97.7
sgRNA knockout: sgATF6, 100 nM | 98
sgRNA knockout: sgATF6, 1000 nM | 80.8
sgRNA knockout: sgATF6, 10000 nM | 52.8
sgRNA knockout: sgATG7, 10 nM | 100
sgRNA knockout: sgATG7, 100 nM | 115
sgRNA knockout: sgATG7, 1000 nM | 109
sgRNA knockout: sgATG7, 10000 nM | 67.4
sgRNA knockout: sgERN1, 10 nM | 92.1
sgRNA knockout: sgERN1, 100 nM | 127
sgRNA knockout: sgERN1, 1000 nM | 99.4
sgRNA knockout: sgERN1, 10000 nM | 56.4
sgRNA knockout: sgHSF1, 10 nM | 100
sgRNA knockout: sgHSF1, 100 nM | 142
sgRNA knockout: sgHSF1, 1000 nM | 95.4
sgRNA knockout: sgHSF1, 10000 nM | 67.2
sgRNA knockout: sgHSF2, 10 nM | 92
sgRNA knockout: sgHSF2, 100 nM | 137
sgRNA knockout: sgHSF2, 1000 nM | 112
sgRNA knockout: sgHSF2, 10000 nM | 58.5
sgRNA knockout: sgKEAP1, 10 nM | 89.7
sgRNA knockout: sgKEAP1, 100 nM | 117
sgRNA knockout: sgKEAP1, 1000 nM | 87.5
sgRNA knockout: sgKEAP1, 10000 nM | 57.1
sgRNA knockout: sgNFE2L2, 10 nM | 108
sgRNA knockout: sgNFE2L2, 100 nM | 138
sgRNA knockout: sgNFE2L2, 1000 nM | 101
sgRNA knockout: sgNFE2L2, 10000 nM | 50.3
sgRNA knockout: sgSLC35F2, 10 nM | 72.5
sgRNA knockout: sgSLC35F2, 100 nM | 136
sgRNA knockout: sgSLC35F2, 1000 nM | 76.2
sgRNA knockout: sgSLC35F2, 10000 nM | 51.9
sgRNA knockout: sgXBP1, 10 nM | 74.9
sgRNA knockout: sgXBP1, 100 nM | 129
sgRNA knockout: sgXBP1, 1000 nM | 104
sgRNA knockout: sgXBP1, 10000 nM | 68.5

Cc1cnc(Nc2ccc(OCCN3CCCC3)cc2)nc1Nc1cccc(S(=O)(=O)NC(C)(C)C)c1
Conditions | relative cell number
sgRNA knockout: sgATF3, 10 nM | 95.9
sgRNA knockout: sgATF3, 100 nM | 93.2
sgRNA knockout: sgATF3, 1000 nM | 65.2
sgRNA knockout: sgATF3, 10000 nM | 10.3
sgRNA knockout: sgATF4, 10 nM | 104
sgRNA knockout: sgATF4, 100 nM | 83.6
sgRNA knockout: sgATF4, 1000 nM | 88.3
sgRNA knockout: sgATF4, 10000 nM | 8.71
sgRNA knockout: sgATF6, 10 nM | 117
sgRNA knockout: sgATF6, 100 nM | 95.4
sgRNA knockout: sgATF6, 1000 nM | 63.9
sgRNA knockout: sgATF6, 10000 nM | 9.25
sgRNA knockout: sgATG7, 10 nM | 94.3
sgRNA knockout: sgATG7, 100 nM | 92.3
sgRNA knockout: sgATG7, 1000 nM | 57.5
sgRNA knockout: sgATG7, 10000 nM | 4.67
sgRNA knockout: sgERN1, 10 nM | 97.3
sgRNA knockout: sgERN1, 100 nM | 76.3
sgRNA knockout: sgERN1, 1000 nM | 55.7
sgRNA knockout: sgERN1, 10000 nM | 7.17
sgRNA knockout: sgHSF1, 10 nM | 102
sgRNA knockout: sgHSF1, 100 nM | 72.9
sgRNA knockout: sgHSF1, 1000 nM | 57.8
sgRNA knockout: sgHSF1, 10000 nM | 8.75
sgRNA knockout: sgHSF2, 10 nM | 115
sgRNA knockout: sgHSF2, 100 nM | 107
sgRNA knockout: sgHSF2, 1000 nM | 65.2
sgRNA knockout: sgHSF2, 10000 nM | 6.8
sgRNA knockout: sgKEAP1, 10 nM | 108
sgRNA knockout: sgKEAP1, 100 nM | 96
sgRNA knockout: sgKEAP1, 1000 nM | 70.4
sgRNA knockout: sgKEAP1, 10000 nM | 8.88
sgRNA knockout: sgNFE2L2, 10 nM | 111
sgRNA knockout: sgNFE2L2, 100 nM | 117
sgRNA knockout: sgNFE2L2, 1000 nM | 70.6
sgRNA knockout: sgNFE2L2, 10000 nM | 9.14
sgRNA knockout: sgSLC35F2, 10 nM | 96.7
sgRNA knockout: sgSLC35F2, 100 nM | 85
sgRNA knockout: sgSLC35F2, 1000 nM | 65.7
sgRNA knockout: sgSLC35F2, 10000 nM | 5.11
sgRNA knockout: sgXBP1, 10 nM | 96.6
sgRNA knockout: sgXBP1, 100 nM | 106
sgRNA knockout: sgXBP1, 1000 nM | 69.2
sgRNA knockout: sgXBP1, 10000 nM | 7.51

Cc1cnc(-c2cnc(NCCNc3ccc(C#N)cn3)nc2-c2ccc(Cl)cc2Cl)[nH]1
Conditions | relative cell number
sgRNA knockout: sgATF3, 10 nM | 96.8
sgRNA knockout: sgATF3, 100 nM | 90.8
sgRNA knockout: sgATF3, 1000 nM | 57.2
sgRNA knockout: sgATF3, 10000 nM | 47.2
sgRNA knockout: sgATF4, 10 nM | 109
sgRNA knockout: sgATF4, 100 nM | 103
sgRNA knockout: sgATF4, 1000 nM | 104
sgRNA knockout: sgATF4, 10000 nM | 67.3
sgRNA knockout: sgATF6, 10 nM | 80.8
sgRNA knockout: sgATF6, 100 nM | 97.7
sgRNA knockout: sgATF6, 1000 nM | 67.7
sgRNA knockout: sgATF6, 10000 nM | 62.8
sgRNA knockout: sgATG7, 10 nM | 98
sgRNA knockout: sgATG7, 100 nM | 81.9
sgRNA knockout: sgATG7, 1000 nM | 96.3
sgRNA knockout: sgATG7, 10000 nM | 69.2
sgRNA knockout: sgERN1, 10 nM | 103
sgRNA knockout: sgERN1, 100 nM | 89.9
sgRNA knockout: sgERN1, 1000 nM | 78.7
sgRNA knockout: sgERN1, 10000 nM | 64.7
sgRNA knockout: sgHSF1, 10 nM | 98.1
sgRNA knockout: sgHSF1, 100 nM | 90.9
sgRNA knockout: sgHSF1, 1000 nM | 78.8
sgRNA knockout: sgHSF1, 10000 nM | 49.5
sgRNA knockout: sgHSF2, 10 nM | 108
sgRNA knockout: sgHSF2, 100 nM | 101
sgRNA knockout: sgHSF2, 1000 nM | 78.5
sgRNA knockout: sgHSF2, 10000 nM | 67.33
sgRNA knockout: sgKEAP1, 10 nM | 98.8
sgRNA knockout: sgKEAP1, 100 nM | 92.9
sgRNA knockout: sgKEAP1, 1000 nM | 92.3
sgRNA knockout: sgKEAP1, 10000 nM | 44.7
sgRNA knockout: sgNFE2L2, 10 nM | 89.9
sgRNA knockout: sgNFE2L2, 100 nM | 86.1
sgRNA knockout: sgNFE2L2, 1000 nM | 83.5
sgRNA knockout: sgNFE2L2, 10000 nM | 57
sgRNA knockout: sgSLC35F2, 10 nM | 87.9
sgRNA knockout: sgSLC35F2, 100 nM | 94.8
sgRNA knockout: sgSLC35F2, 1000 nM | 71.8
sgRNA knockout: sgSLC35F2, 10000 nM | 51.3
sgRNA knockout: sgXBP1, 10 nM | 87.4
sgRNA knockout: sgXBP1, 100 nM | 98.2
sgRNA knockout: sgXBP1, 1000 nM | 80.7
sgRNA knockout: sgXBP1, 10000 nM | 59
